Results published in article doi:10.1101/2021.04.10.439302.
These are yes or no findings as the source states them, for the method shown. In cells and extracts the contact can be indirect. Some entries that bind do so weakly or less than the wild type.

Target: T1, VAMP7 (mouse (endogenous in mouse brain)), P70280
T1 chain: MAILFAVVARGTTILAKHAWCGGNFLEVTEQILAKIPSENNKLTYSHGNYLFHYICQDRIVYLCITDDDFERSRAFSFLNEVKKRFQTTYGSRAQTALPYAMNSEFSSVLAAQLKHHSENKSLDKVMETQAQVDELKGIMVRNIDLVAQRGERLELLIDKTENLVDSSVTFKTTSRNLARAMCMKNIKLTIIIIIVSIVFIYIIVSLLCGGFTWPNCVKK
Experiment: co-IP
Conditions: remark: other sources report otherwise

B1: SNAP23, O09044 1-210 (protein)
chain: MDNLSPEEVQLRAHQVTDESLESTRRILGLAIESQDAGIKTITMLDEQGEQLNRIEEGMDQINKDMREAEKTLTELNKCCGLCICPCNRTKNFESGKNYKATWGDGGDNSPSNVVSKQPSRITNGQPQQTTGAASGGYIKRITNDAREDEMEENLTQVGSILGNLKNMALDMGNEIDAQNQQIQKITEKADTNKNRIDIANTRAKKLIDS
B1 was tested, and the binding was “binds”.
